Some of the results follow. These are further read-outs of the screen, such as a control signal, another cell line or another target. No call is given for them. Most of these compounds were active or inconclusive in the main read-out, so they are no random draw. Words in brackets tell the shape of the fitted curve; partial curves, single points and poor fits give uncertain potencies. Where a SMILES comes first, the peptide text is derived from it. The star is where a group is joined. Cbz = O=C(OCc1ccccc1)*
Test: qHTS Assay for Lipid Storage Modulators in Drosophila S3 Cells;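 as to cell number change: cells counted by Cell Tracker Red CMTPX staining in the red channel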
Conditions: BODIPY lipid droplet fluorescence, 18-24 h; for cell number change: measured here: cell count max response, cells fed with added oleic acid
Outline: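 Laser-scanning cytometry quantifies lipid droplet accumulation (500–530 nm total intensity; droplet/cell object ratio) in oleic acid-fed (400 uM added) Drosophila S3 cells treated with a concentration series. 20 uM Triacsin C defined 100% inhibition.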

[1] = measured here: lipid fluorescence (Fed channel) AC50, cells fed with added oleic acid
[2] = measured here: cell number channel AC50, cells fed with added oleic acid

Structure (SMILES) | AC50 [1] | cell number change | AC50 [2]
O=C1C=CC(=O)N1N(c1ccccc1)c1ccccc1 | 25.9 µM [falling, partial curve, poor fit] |  | 
O=c1c2[nH]cnc2n(-c2ccc(F)cc2)c(=O)n1Cc1ccccc1 | 0.58 µM [falling, single point] | -12.5% | 
CCN(C(=O)Cc1cccs1)c1nnc(-c2cccnc2)s1 | 29.1 µM [rising, single point] | 6.79% | 
Cc1ccc(C(=O)N2c3ccccc3NC(=O)C2C)cc1 (stereo not given) |  | -7.87% | 
CC1=C(C(=O)O)N2C(=O)C(NC(=O)c3ccc(F)cc3)C2SC1 (stereo not given) | 7.31 µM [rising, single point] | 15.4% | 
COc1ccc(C2=NN(C(=O)CSc3nc(=O)n4ccc(C)cc4n3)C(c3ccc(C)cc3)C2)cc1 (stereo not given) | 1.84 µM [rising, partial curve] | 45.3% | 1.84 µM [rising, partial curve]
C=CCN1C(=O)c2ccc(C(=O)NCC(=O)Nc3c(C)cc(C)cc3C)cc2C1=O | 0.82 µM [falling, full curve, poor fit] | -21.4% | 
Cc1cc(C)n2cc(CSc3ccc(Br)cc3)nc2n1 | 18.4 µM [rising, single point] | 44.8% | 23.1 µM [rising, single point]
O=C(CSc1ccsc1[N+](=O)[O-])NCc1ccccc1 |  | -27.9% | 
COc1ccc(C)cc1NC(=O)CSc1nnc(COc2ccc(C)cc2)n1Cc1ccco1 | 29.1 µM [falling, single point] | -33.9% | 18.4 µM [falling, partial curve]
C=CCOc1ccccc1CN1CCC(n2nccc2NC(=O)C2CCOC2)CC1 (stereo not given) | 3.66 µM [falling, full curve, poor fit] | -12.3% | 
CCOc1ccc(C(=O)N(Cc2ccccc2)c2cccc(C)c2)cc1OC |  | -1.62% | 
Cc1ccc(SCC(=O)NCC(C)C)cc1 | 0.0259 µM [falling, full curve, poor fit] | 1.19% | 
CCCCOC(=O)c1ccc(NC(=O)c2c(Cl)ccc(Cl)c2OC)cc1 | 18.4 µM [rising, partial curve] | -6.58% | 
Cc1cc(NC(=O)CCC(=O)N(CC(=O)NCC2CCCO2)c2ccc(C(C)C)cc2)no1 (stereo not given) |  | -8.57% | 
COc1ccc(NC(=O)c2cc3ccccc3o/c2=N\NS(=O)(=O)c2ccc(C)cc2)cc1 |  | 10.7% | 
CCOC(=O)Nc1sc2c(c1C(=O)OCC)CCC2 | 29.1 µM [rising, single point] | 1.85% | 
Cc1onc(-c2ccccc2Cl)c1C(=O)NCc1ccc(S(N)(=O)=O)cc1 |  | 16.3% | 
CN1CCN(c2nc3c(c(=O)n(C)c(=O)n3C)n2Cc2cccc(Br)c2)CC1 | 0.58 µM [rising, single point] | -7.67% | 
Cc1c(Cl)c([N+](=O)[O-])nn1CC(=O)N1CCN(C23CC4CC(CC(C4)C2)C3)CC1 |  | 2.86% | 
O=C(NC1CCCCC1)C(c1ccccc1)N(C(=O)Cc1ccsc1)c1ccccc1 (stereo not given) | 6.51 µM [falling, single point] |  | 1.3 µM [falling, partial curve]

Structure (SMILES) | AC50 [1] | cell number change | AC50 [2]
COC(=O)C(CO)NC(=O)C1CCCN1C(=O)CNC(=O)OCc1ccccc1 (stereo not drawn) (Cbz-Gly-Pro-Ser-OMe; configuration not given here) | 18.4 µM [rising, single point] | 35.6% | 32.6 µM [rising, partial curve, poor fit]
c1ccc(N2CCN(Cc3ccsc3)CC2)nc1 | 0.411 µM [falling, full curve, poor fit] | 10.1% | 
N#Cc1ccccc1NC(=O)CN1C(=O)NC(Cc2c[nH]c3ccccc23)C1=O (stereo not given) |  | 3.68% | 
O=C(CCCC(=O)OCC1CCCO1)OCC1CCCO1 (stereo not given) | 4.11 µM [falling, partial curve, poor fit] | -13.7% | 
CN(C(=O)CSc1ncnc2ccccc12)C1CCCCC1 | 2.06 µM [falling, partial curve] |  | 
C/C=C(/C)C(=O)OC1Cc2c(ccc3ccc(=O)oc23)OC1(C)C (stereo not given) | 29.1 µM [falling, single point] | -51.9% | 18.4 µM [falling, single point]
CC(CCc1ccccc1)NC(=O)CCc1cn(C)c2ccccc12 (stereo not given) | 29.1 µM [rising, single point] | 75.4% | 29.1 µM [rising, single point]
C#CCn1c(=NC(=O)c2cccs2)sc2cccc(OCC)c21 | 6.51 µM [rising, single point] | 4.73% | 
O=C(NCc1ccco1)c1cc(S(=O)(=O)N2CCOCC2)c(Cl)cc1Cl | 2.06 µM [falling, full curve, poor fit] | 0.68% | 
O=C(CCn1nnc2ccccc21)OCC(=O)c1ccc([N+](=O)[O-])cc1 | 0.82 µM [falling, full curve] |  | 
COc1ccc([C@H]2CC(=O)C=C(c3ccc4ccccc4c3)C2)cc1OC | 0.184 µM [rising, full curve, poor fit] | -15.6% | 
COc1cc(/C=C/C(=O)OCC(=O)c2ccc(S(=O)(=O)N3CCCCC3)cc2)cc(OC)c1OC | 29.1 µM [rising, single point] | 10.4% | 
CCCCNC(=O)N(O)C1N(/N=C/c2ccccc2O)C(=S)SC1(C)C (stereo not given) |  | 24.3% | 
Cc1cccc(NS(=O)(=O)c2ccc3[nH]c(=O)cc(C(=O)OC(C)C(=O)Nc4ccc([N+](=O)[O-])cc4)c3c2)c1 (stereo not given) |  | -22.8% | 
O=C(COc1ccc(Br)cc1CNC1CCCC1)Nc1ccccc1 |  | 10.5% | 7.31 µM [falling, partial curve, poor fit]
COc1ccc(N2C(=O)CC(Sc3nnnn3-c3ccc(F)cc3)C2=O)cc1 (stereo not given) |  | -41.5% | 3.66 µM [falling, full curve]
COc1ccc(OC)c(S(=O)(=O)NC2CCCCC2)c1 | 6.51 µM [rising, partial curve] | 49% | 29.1 µM [rising, single point]
COc1cc2c(cc1OC)CN(S(C)(=O)=O)CC2 | 29.1 µM [rising, single point] |  | 
O=C(Nc1ccc(S(=O)(=O)N2CCCCCC2)cc1)c1c(F)cccc1F |  | 12.1% | 
O=C(N1CCOCC1)N1CCN(c2nc(-c3ccccc3)cs2)CC1 |  | 43.1% | 2.59 µM [rising, full curve]
C=CCNc1nnc(SCC(=O)N2CCCCC2)c2ccccc12 | 0.231 µM [rising, full curve] |  | 0.92 µM [rising, full curve]

In the list so far, 4 have a Cl atom.
Structure (SMILES) | AC50 [1] | cell number change | AC50 [2]
CCCCOC(=O)c1ccc(NC(=O)c2c(Cl)ccc(Cl)c2OC)cc1 | 18.4 µM [rising, partial curve] | -6.58% | 
Cc1onc(-c2ccccc2Cl)c1C(=O)NCc1ccc(S(N)(=O)=O)cc1 |  | 16.3% | 
Cc1c(Cl)c([N+](=O)[O-])nn1CC(=O)N1CCN(C23CC4CC(CC(C4)C2)C3)CC1 |  | 2.86% | 
O=C(NCc1ccco1)c1cc(S(=O)(=O)N2CCOCC2)c(Cl)cc1Cl | 2.06 µM [falling, full curve, poor fit] | 0.68% | 

(list continues)

Structure (SMILES) | AC50 [1] | cell number change | AC50 [2]
CCOC(=O)CNC(=O)c1c(C)nn(C)c1Cl |  | -46.4% | 
COC(=O)c1c(S(=O)(=O)NCc2ccccc2)sc(C(=O)O)c1C | 29.1 µM [falling, single point] | -5.52% | 
CCOc1ccc(C2N(c3ccc(OC)cc3)C(=O)C3CCCN32)cc1OC (stereo not given) | 29.1 µM [rising, partial curve, poor fit] |  | 
COc1ccc(CNCc2c(F)cccc2F)cc1OC |  | 4.4% | 
CN(C)S(=O)(=O)c1cccc(NC(=O)CO/N=C(\N)c2ccccc2)c1 | 0.116 µM [rising, full curve, poor fit] |  | 0.92 µM [rising, partial curve]
O=C(Nc1ccc(Nc2ccncc2)cc1)c1ccc(Nc2ccnc3ccc([N+](=O)[O-])cc23)cc1[N+](=O)[O-] | 29.1 µM [falling, single point] | -26.9% | 
COc1ccc(C2(C(=O)NCCCN3CCOCC3)CCOCC2)cc1 |  | 5.01% | 
CC(=O)Nc1ccc(S(=O)(=O)NCc2nc(-c3ccccc3Cl)no2)cc1 |  | 2.52% | 
CSc1cc(-c2ccccc2)n(Cc2ccc(Cl)cc2Cl)c(=O)c1C#N | 0.651 µM [rising, single point] |  | 0.731 µM [rising, single point]
CCN(Cc1ccccc1)C(=O)Cc1ccc(OC)c(S(=O)(=O)N2CCOCC2)c1 | 6.51 µM [rising, single point] |  | 0.58 µM [falling, full curve, poor fit]
CCCCNC(=O)CC1N=C2c3ccccc3N=C(SCC(=O)Nc3ccccc3OC)N2C1=O (stereo not given) | 0.92 µM [rising, full curve] | 2.33% | 
COc1ccccc1N(Cc1cc(=O)[nH]c2ccccc12)C(=O)C(C)C | 9.2 µM [rising, partial curve] | 45.4% | 5.17 µM [rising, full curve, poor fit]
CC(C)Cc1nnc(NS(C)(=O)=O)s1 | 1.16 µM [falling, full curve, poor fit] | 13% | 
O=C(O)c1ccc(N/N=C/c2c(F)cccc2Cl)cc1 | 0.58 µM [rising, partial curve] | 21.5% | 
CN(C(=O)c1ccc(OC2CCN(Cc3ccccn3)CC2)cc1)C1CCCCC1 | 13 µM [rising, single point] | 22.6% | 
CC(NC(=O)C1c2ccccc2Oc2ccccc21)C1CCCO1 (stereo not given) | 29.1 µM [rising, single point] | 62.9% | 18.4 µM [rising, single point]
COc1ccccc1C(=O)Nc1cccc2nc(C)ccc12 |  | -25.7% | 
Cc1cc(N2CCCC2=O)cc(C)c1S(=O)(=O)NCCOc1ccc(C(C)(C)C)cc1 | 4.11 µM [falling, full curve] | -54.2% | 4.61 µM [falling, partial curve]
O=C(CNC(=O)c1cccc(Br)c1)N/N=C/c1cc(Br)cc(Br)c1O | 6.51 µM [rising, single point] |  | 

Source: PubChem BioAssay AID2685 (National Center for Advancing Translational Sciences (NCATS), 2010)
